## Results of single-concentration screens

Chains of the proteins cited; added tags and fusions are not shown. Residues count along the entry.
UniProt Q4DA54, 1-478: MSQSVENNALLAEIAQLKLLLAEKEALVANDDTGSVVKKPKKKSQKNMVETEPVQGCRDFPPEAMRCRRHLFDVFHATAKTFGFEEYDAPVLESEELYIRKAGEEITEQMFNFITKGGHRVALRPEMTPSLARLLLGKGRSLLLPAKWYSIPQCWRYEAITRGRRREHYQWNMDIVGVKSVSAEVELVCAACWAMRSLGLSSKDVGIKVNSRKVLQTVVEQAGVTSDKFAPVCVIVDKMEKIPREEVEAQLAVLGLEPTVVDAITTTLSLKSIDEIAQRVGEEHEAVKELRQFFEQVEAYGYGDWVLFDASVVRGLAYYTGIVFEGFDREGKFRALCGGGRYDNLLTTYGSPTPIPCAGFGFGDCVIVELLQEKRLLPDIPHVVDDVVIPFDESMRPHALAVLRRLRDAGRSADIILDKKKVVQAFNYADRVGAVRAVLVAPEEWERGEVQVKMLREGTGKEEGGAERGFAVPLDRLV
UniProt A4I591, 1-473: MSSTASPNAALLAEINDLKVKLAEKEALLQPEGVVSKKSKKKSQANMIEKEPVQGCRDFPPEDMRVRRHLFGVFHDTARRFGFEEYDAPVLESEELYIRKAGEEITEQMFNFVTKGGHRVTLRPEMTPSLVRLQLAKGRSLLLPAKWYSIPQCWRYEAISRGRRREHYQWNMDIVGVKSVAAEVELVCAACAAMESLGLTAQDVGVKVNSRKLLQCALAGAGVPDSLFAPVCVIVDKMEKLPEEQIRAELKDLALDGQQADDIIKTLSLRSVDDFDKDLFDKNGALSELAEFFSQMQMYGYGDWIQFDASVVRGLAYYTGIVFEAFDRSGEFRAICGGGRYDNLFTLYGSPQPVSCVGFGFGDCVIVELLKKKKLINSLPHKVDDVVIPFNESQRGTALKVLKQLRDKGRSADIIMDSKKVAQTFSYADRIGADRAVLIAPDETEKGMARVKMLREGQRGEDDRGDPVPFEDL
UniProt Q8IDJ8, 1-583: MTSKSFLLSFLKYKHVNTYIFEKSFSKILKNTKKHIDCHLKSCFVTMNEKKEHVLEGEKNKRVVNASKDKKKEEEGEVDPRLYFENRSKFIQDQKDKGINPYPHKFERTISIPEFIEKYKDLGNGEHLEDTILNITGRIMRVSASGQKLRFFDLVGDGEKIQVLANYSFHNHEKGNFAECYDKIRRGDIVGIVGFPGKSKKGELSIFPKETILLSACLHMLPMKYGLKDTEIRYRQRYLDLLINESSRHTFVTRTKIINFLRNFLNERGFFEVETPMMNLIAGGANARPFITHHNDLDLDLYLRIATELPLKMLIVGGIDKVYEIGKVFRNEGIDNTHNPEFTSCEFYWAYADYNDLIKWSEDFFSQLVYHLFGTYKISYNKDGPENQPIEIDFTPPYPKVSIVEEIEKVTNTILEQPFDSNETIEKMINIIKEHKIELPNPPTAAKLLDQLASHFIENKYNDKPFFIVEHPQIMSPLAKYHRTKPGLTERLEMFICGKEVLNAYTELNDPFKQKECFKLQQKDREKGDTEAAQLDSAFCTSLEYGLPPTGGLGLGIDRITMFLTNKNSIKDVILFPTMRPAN

From ChEMBL document CHEMBL3988442, “University of Dundee, Small-Polar-MMV Screening Library” (2021).

Results are given as percent effect. The record does not define 0% and 100%; most values in the screen are far below 50% and negative numbers occur (in some assays of this library far below -100). The compounds are a random part of those screened.

TcHisRS: 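Enzyme assay of histidyl-tRNA synthetase; the read-out is not stated. Target: Histidine-tRNA ligase, Trypanosoma cruzi CL Brener (UniProt Q4DA54). Compounds at 30 µM. The record gives no direction; compounds that gave an IC50 in retests scored well above the rest, so higher reads as stronger inhibition. Size under these conditions: about 69,000 compounds, about 31 of them at 50% or above in at least one test.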
LiHisRS: 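Histidine-tRNA ligase, Leishmania infantum (UniProt A4I591). Enzyme assay of histidyl-tRNA synthetase; the read-out is not stated. Compounds at 30 µM. Direction is inferred from retests: higher values go with stronger inhibition. The assay is labelled LdHisRS but filed under L. infantum. Of about 69,000 compounds tested this way, about 410 (0.6%) reached 50% or more in at least one test.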
PfKRS1: 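Lysine-tRNA ligase, Plasmodium falciparum 3D7 (UniProt Q8IDJ8). Enzyme assay of the cytosolic lysyl-tRNA synthetase in 384-well plates, read by luminescence. Concentration: 30 µM. Higher reads as stronger inhibition, judged from the few compounds that gave an IC50. Of about 69,000 compounds tested this way, about 49 (0.071%) reached 50% or more in at least one test.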

structure	TcHisRS	LiHisRS	PfKRS1
CSc1ccc(CCNC(=O)Cc2c(C)n[nH]c2C)cc1	3.96	11.96	-5.171
Cc1ccccc1CSCCn1nc2ccccn2c1=O	-2.642	16	1.158
CN(C(=O)CCc1ccsc1)S(C)(=O)=O	-4.124	3.226	0.1332
CS(=O)(=O)CC1(CNc2ccc(C#N)c(C(F)(F)F)c2)CC1	4.211	16.44	2.998
COC(=O)C(C)(C)NC(=O)C1CC(=O)N(C2CCCC2)C1 (stereo unspecified)	0.8264	5.714	2.618
O=C(NC[C@H]1OC[C@@H](NC2COC2)[C@@H]1O)C1CCCC1	6.522	14.86	5.7
c1cc(CN2CCCC(c3noc(C4CC4)n3)C2)no1 (stereo unspecified)	0.7519	14.29	4.287
Cc1nc(C)n(CC2CCCCN2CCCS(C)(=O)=O)n1 (stereo unspecified)	2.062	11.29	0.06053
Cc1nccc(-c2cccc(NCC(=O)N3CCc4sccc4C3)c2)n1	3.03	50	4.093
N#Cc1cccc(NC(=O)CCn2nc(-c3cccs3)oc2=O)c1	0.578	11.61	-1.425
CC(O)C(=O)N1CCC(c2nccn2Cc2cscn2)CC1 (stereo unspecified)	-4.523	13.6	-3.542
Cn1c2ncccc2c(=O)n1CC(=O)NCCc1c(F)cccc1F	12	20.41	2.161
COCCN(C(=O)c1ccoc1C)c1ccc(C#N)cc1	8.824	10	-0.6445
CC(C)CNC(=O)CNC(=O)NC(C)COc1ccccc1F (stereo unspecified)	10	4.11	5.965
Cc1c(CC(C#N)C(=O)Nc2cccc(O)c2)cnn1C (stereo unspecified)	9.278	14.29	2.732
Cc1cc(NC(=O)Cn2ccccc2=O)n(C)n1	5.882	5.263	4.425
OCC1(O)CCCN(Cc2nnc(-c3ccccc3)o2)CC1 (stereo unspecified)	7.463	4.196	3.423
c1cnc(N2CCCC(c3n[nH]c4ncccc34)C2)nc1 (stereo unspecified)	9.89	10.14	6.164
CCc1nc(C2CCCN(c3ncc(Br)cn3)C2)no1 (stereo unspecified)	4.124	11.43	-3.102
Cc1ccn2c(F)c(C(=O)N3CCC4(CCCN(C)C4=O)C3)nc2c1 (stereo unspecified)	2.146	9.836	4.569
CCCNc1ncc(CN2CCC3(CCNC(=O)CC3)CC2)cn1	-0.5291	9.333	7.298
O=C(NC1CCS(=O)(=O)C1)N1CCN(c2cnccn2)CC1 (stereo unspecified)	-0.3831	21.54	1.769
CSCC(C)(O)CNC(=O)c1ccc(Br)cc1F (stereo unspecified)	0	15.09	-1.434
Cc1ccc(CN2CCC3(CC(C(=O)NCC4CC4)=NO3)C2)cc1C (stereo unspecified)	-2.703	3.774	-5.173
Fc1cnc(N2CCOC3(CCN(Cc4cccs4)CC3)C2)nc1	10.61	15.38	1.98
CC(C(=O)Nc1ccc(N2CCCC2)nc1)n1cncn1 (stereo unspecified)	2.256	47.62	-0.3612
COc1ccccc1CN1C[C@@H]2COC[C@]2(COc2cccnc2)C1	6.748	19.75	2.043
COC(=O)CC(c1ccc(OC)c(OC)c1OC)c1c(O)n[nH]c1C (stereo unspecified)	7.216	7.692	-1.475
CNC(=O)C1CCC2(CCN(c3ncc(C)cn3)CC2)CO1 (stereo unspecified)	3.681	6.838	2.186
CSC(C)C(=O)N1CCC(Oc2cc(C)ccc2F)(C(=O)O)CC1 (stereo unspecified)	0	4.839	-0.03592
Cc1nc(CN(C)C2CCN(CCc3cccs3)C2)no1 (stereo unspecified)	6.553	6.838	-0.7369
Cc1nc(C(C)NC(=O)COc2ccc(F)cc2)n[nH]1 (stereo unspecified)	11.6	15.49	3.506
Cc1ccccc1N1CCCN(c2ccncn2)CC1	7.389	17.11	3.754
Cn1nc(C(=O)NC2(c3ccccc3)CCC2)ccc1=O	6.736	19.1	5.439
CN1CCOC(CNCC(=O)NCCC2=CCCCC2)C1 (stereo unspecified)	1.657	13.47	-2.035
CC(C)Cc1nc(CN2CCN(CC(O)c3ccccc3)CC2)no1 (stereo unspecified)	0.5634	2.609	-1.46
COc1nn(C)c2c1CCCN(C(=O)c1cccc3cccnc13)C2	-31.75	-75.45	3.936
CC(=O)c1ccc(-c2cnn(CC(=O)Nc3ccnn3C)c2)nc1	4.242	2.222	-0.3505
Cc1noc(C)c1C(=O)NCc1ccc(N2CCC(C)CC2)nc1	7.345	15.52	2.877
CN(CC(=O)NC1CC1)C(=O)c1csc(Br)c1	2.591	15.05	8.032
O=C(Cc1cccs1)N1Cc2nc(CN3CCCC3)oc2C1	-2.21	2.703	-0.9522
O=C1C(NS(=O)(=O)c2cccc(F)c2)CCN1Cc1ccccc1 (stereo unspecified)	3.429	5.085	-0.1842
Cc1cnn(CCNCc2nnc(-c3ccccc3)o2)c1	2.564	6.838	2.492
CC1CN(Cc2nc(Cc3ccccc3F)no2)CCN1C (stereo unspecified)	3.139	12.94	10.12
O=C(CC1CCc2ccccc21)N1CCC(O)(c2cccnc2)CC1 (stereo unspecified)	3.093	14.29	4.738
CCCc1cc(NC2CCc3nc(C(C)C)nn3C2)n2ncnc2n1 (stereo unspecified)	5.521	24.69	3.35
CCn1cnnc1CNC(=O)N1CCN(Cc2ccco2)CC1	4.373	15.04	0.2032
COc1cc2c(cc1CNC(=O)Cc1cc(C)[nH]n1)OC(C)C2 (stereo unspecified)	1.667	-0.9009	-0.3359
Cc1cnc(CN(C)C2CCN(CCc3ccccn3)CC2)cn1	1.916	24.62	-0.6477
COc1cc(C2SCC(=O)Nc3ccsc32)cc(OC)c1O (stereo unspecified)	3.409	8.333	1.585
Cc1ccc(C(=O)N2CCCCC2c2[nH]ncc2S(C)(=O)=O)s1 (stereo unspecified)	1.099	-7.246	1.63
Cc1ccc(CN2CC(O)CN(C(=O)OCC(C)C)CC2=O)cc1 (stereo unspecified)	8.989	18.37	3.912
Clc1cncc(NCc2cccc(COC3CCOCC3)c2)n1	-0.5236	17.24	1.036
COCc1cnc2n1CCN(C(=O)c1oc3ccccc3c1C)C2C (stereo unspecified)	1.031	-2	-1.609
CN(C)C[C@@H]1CN(C2CCN(c3ccccc3Cl)CC2)C[C@@H]1CO	6.077	21.69	3.872
O=C(O)c1cc2c(nc1-c1cncnc1)CCN(C1CCOC1)CC2 (stereo unspecified)	3.226	-7.965	1.163
COC1CCCN(C(=O)Nc2nc(C)n(C)n2)C1 (stereo unspecified)	1.245	20.39	4.805
Cc1nc(C(=O)N2CCN(S(C)(=O)=O)CC2)c(-c2cccc(F)c2)s1	-1.22	10.53	0.9367

3 of the entries, repeated:

| structure | TcHisRS | LiHisRS | PfKRS1 |
|---|---|---|---|
| `CSC(C)C(=O)N1CCC(Oc2cc(C)ccc2F)(C(=O)O)CC1` (stereo unspecified) | 0 | 4.839 | -0.03592 |
| `O=C(Cc1cccs1)N1Cc2nc(CN3CCCC3)oc2C1` | -2.21 | 2.703 | -0.9522 |
| `COc1cc(C2SCC(=O)Nc3ccsc32)cc(OC)c1O` (stereo unspecified) | 3.409 | 8.333 | 1.585 |